Data from ChEMBL document CHEMBL3739368, “Versixanthones A-F, Cytotoxic Xanthone-Chromanone Dimers from the Marine-Derived Fungus Aspergillus versicolor HDN1009” (J Nat Prod, 2015).
Where a name gives a salt, the structure may show the parent alone.

Test: Cytotoxicity against human HO8910 cells after 72 hrs by MTT assay
Type: functional, cell-based
Conditions: HO-8910, 72 h

Which IC50 does the source give for `COc1cccc2c1C(=O)c1c(O)c3c(c(O)c1C2=O)C[C@@](O)(C(=O)CO)C[C@@H]3O[C@H]1C[C@H](N)[C@H](O)[C@H](C)O1` [DOXORUBICIN HYDROCHLORIDE] here?
Its IC50 is 500 nM.
